Data taken from patent publication US20050112121A1 (YALE UNIVERSITY, published 2005).

Columns and labels:
[1] = molecular target: T1, Delta (Drosophila), expression construct pMTDl1 (Drosophila) (UniProt P10041); experiment: S2 cell aggregation with Delta cells
T1 sequence: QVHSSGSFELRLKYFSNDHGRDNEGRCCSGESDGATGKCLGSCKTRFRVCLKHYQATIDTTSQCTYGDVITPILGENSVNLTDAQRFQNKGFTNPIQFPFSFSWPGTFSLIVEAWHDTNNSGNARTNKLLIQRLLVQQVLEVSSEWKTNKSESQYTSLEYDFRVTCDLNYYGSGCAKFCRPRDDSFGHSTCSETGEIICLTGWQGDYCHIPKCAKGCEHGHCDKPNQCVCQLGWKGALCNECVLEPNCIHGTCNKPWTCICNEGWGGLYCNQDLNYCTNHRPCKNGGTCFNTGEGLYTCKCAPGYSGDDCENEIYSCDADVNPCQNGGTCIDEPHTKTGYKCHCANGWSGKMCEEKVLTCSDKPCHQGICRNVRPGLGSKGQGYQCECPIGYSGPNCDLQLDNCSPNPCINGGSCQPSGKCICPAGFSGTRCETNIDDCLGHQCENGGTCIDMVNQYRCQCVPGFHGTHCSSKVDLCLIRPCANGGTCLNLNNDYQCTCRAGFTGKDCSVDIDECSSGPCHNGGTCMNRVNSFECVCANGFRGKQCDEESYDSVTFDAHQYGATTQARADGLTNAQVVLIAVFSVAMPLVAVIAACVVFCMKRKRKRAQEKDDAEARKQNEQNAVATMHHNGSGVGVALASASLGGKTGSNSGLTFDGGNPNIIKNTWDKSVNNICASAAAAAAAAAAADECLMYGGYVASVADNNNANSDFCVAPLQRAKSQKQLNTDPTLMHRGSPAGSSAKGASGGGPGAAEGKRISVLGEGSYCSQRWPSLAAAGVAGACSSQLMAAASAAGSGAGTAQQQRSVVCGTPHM

[2] = molecular target: T1, Delta (Drosophila), expression construct pMTDl1 (Drosophila); experiment: S2 cell aggregation with Delta cells, with or without Ca2+

binding [1]: binds
binding [2]: binds
Substance: Notch deletion construct #32 ΔECN+EGF(11-12) (receptor)

Results are given in words; binding and its absence hold for the method and conditions named. A result given as binding can be weak or reduced; the word gives no strength.
